Laboratory results: PubChem BioAssay AID1224830 (NIAID, 2016)
This is an unselected part of about 18,000 reagents. In the full data, about 2,900 (16%) got an active call. 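Calls are made per well; low scores hint the gene aids the LPS response, high scores that it dampens it.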 Unmarked entries are inactive. Repeated entries: four replicate wells of each siRNA pool. No sequences are given here.

Assay: 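Genes whose knock-down alters the TNF-alpha reporter response to LPS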 (primary screen)
Cell system: human THP-1 monocytic leukaemia cells, TNF dual-luciferase reporter clone, PMA-differentiated to macrophage-like cells
Reagent: siRNA pool against human genes, 50 nM
Duration: LPS for 4 h, given about 3 days after siRNA transfection
Treatment: bacterial LPS (TLR4 ligand), 10 ng/ml
Measurement: 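TNF firefly reporter luminescence divided by renilla, normalised to the plate median, then turned into a robust z-score for each replicate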
Direction: TNF reporter robust z-score: higher = stronger TNF reporter response to LPS
Rule for the call: 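Each well counts as active if its z-score is over 2.8 or under -1.5; controls are left without a call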

no.	Target gene	TNF reporter robust z-score
1	IMPDH1	1.51
2	IMPDH1	0.1
3	IMPDH1	0.6
4	IMPDH1	-0.25
5	SREBF1	-0.34
6	SREBF1	1.04
7	SREBF1	-0.95
8	SREBF1	0.99
9	MT1E	0.64
10	MT1E	0.82
11	MT1E	0.3
12	MT1E	0.73
13	ZNF215	1.38
14	ZNF215	1.64
15	ZNF215	1.37
16	ZNF215	1.17
17	TXNRD2	-0.38
18	TXNRD2	-0.09
19	TXNRD2	0
20	TXNRD2	1.09
21	ADAM12	-0.91
22	ADAM12	-0.69
23	ADAM12	-0.84
24	ADAM12	-0.42
25	NIPAL3	1.54
26	NIPAL3	-0.05
27	NIPAL3	-0.79
28	NIPAL3	0.46
29	STING1	0.74
30	STING1	-0.21
31	STING1	-0.5
32	STING1	0.5
33	CALM2	1.58
34	CALM2	-0.2
35	CALM2	-1
36	CALM2	-0.21
37	OR8K5	0.1
38	OR8K5	0.41
39	OR8K5	0.71
40	OR8K5	-1.11

Continued (7 carried over from the part before).
no.	Target gene	TNF reporter robust z-score
34	CALM2	-0.2
35	CALM2	-1
36	CALM2	-0.21
37	OR8K5	0.1
38	OR8K5	0.41
39	OR8K5	0.71
40	OR8K5	-1.11
41	DDHD2	-0.77
42	DDHD2	-0.95
43	DDHD2	-0.5
44	DDHD2	-0.18
45	PRLHR	-0.92
46	PRLHR	-0.02
47	PRLHR	-0.06
48	PRLHR	-0.24
49	ANKRD1	-0.59
50	ANKRD1	-0.75
51	ANKRD1	-1.01
52	ANKRD1	-0.19
53	CALML5	-0.45
54	CALML5	-0.63
55	CALML5	0.4
56	CALML5	-0.48
57	TFAP2A	2.08
58	TFAP2A	0.1
59	TFAP2A	1.46
60	TFAP2A	0.51
61	ZNF143	0.22
62	ZNF143	1.8
63	ZNF143	-0.07
64	ZNF143	0.47
65	PIK3R3	-1.58 (active)
66	PIK3R3	-0.35
67	PIK3R3	-1.26
68	PIK3R3	-1.48
69	ZBED8L	0.44
70	ZBED8L	0.34
71	ZBED8L	-0.03
72	ZBED8L	-0.47
73	SCMH1	-0.29
74	SCMH1	0.02
75	SCMH1	-0.23
76	SCMH1	-0.01
77	CNDP1	-0.74
78	CNDP1	0.39
79	CNDP1	-0.92
80	CNDP1	0.03
81	ZNF706	0.99
82	ZNF706	1.54
83	ZNF706	1.36
84	ZNF706	0.96
85	PRKAG1	-0.49
86	PRKAG1	-1.25
87	PRKAG1	-0.38
88	PRKAG1	0.02
89	SOWAHA	1.65
90	SOWAHA	2.78
91	SOWAHA	3.07 (active)
92	SOWAHA	3.14 (active)
93	TBC1D2B	-0.08
94	TBC1D2B	-0.93
95	TBC1D2B	-1.59 (active)
96	TBC1D2B	-1.07
97	BEX1	0.62
98	BEX1	1.06
99	BEX1	0.59
100	BEX1	1.49
101	LAMA5	-0.51
102	LAMA5	-0.92
103	LAMA5	-1
104	LAMA5	-0.53
105	EIF4EBP1	-0.75
106	EIF4EBP1	-0.68
107	EIF4EBP1	-1.18
108	EIF4EBP1	-0.57
109	GCA	-0.18
110	GCA	0.09
111	GCA	0.41
112	GCA	1
